Here are results for 2 substances from PMC6183346.

The chains behind the UniProt entries cited, without tags or fusion partners.
UniProt P06428: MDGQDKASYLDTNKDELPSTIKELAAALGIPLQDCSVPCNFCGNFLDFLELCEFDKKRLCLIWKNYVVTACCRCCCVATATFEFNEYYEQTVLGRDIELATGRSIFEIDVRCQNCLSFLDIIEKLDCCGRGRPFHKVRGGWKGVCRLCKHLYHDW
UniProt Q92585: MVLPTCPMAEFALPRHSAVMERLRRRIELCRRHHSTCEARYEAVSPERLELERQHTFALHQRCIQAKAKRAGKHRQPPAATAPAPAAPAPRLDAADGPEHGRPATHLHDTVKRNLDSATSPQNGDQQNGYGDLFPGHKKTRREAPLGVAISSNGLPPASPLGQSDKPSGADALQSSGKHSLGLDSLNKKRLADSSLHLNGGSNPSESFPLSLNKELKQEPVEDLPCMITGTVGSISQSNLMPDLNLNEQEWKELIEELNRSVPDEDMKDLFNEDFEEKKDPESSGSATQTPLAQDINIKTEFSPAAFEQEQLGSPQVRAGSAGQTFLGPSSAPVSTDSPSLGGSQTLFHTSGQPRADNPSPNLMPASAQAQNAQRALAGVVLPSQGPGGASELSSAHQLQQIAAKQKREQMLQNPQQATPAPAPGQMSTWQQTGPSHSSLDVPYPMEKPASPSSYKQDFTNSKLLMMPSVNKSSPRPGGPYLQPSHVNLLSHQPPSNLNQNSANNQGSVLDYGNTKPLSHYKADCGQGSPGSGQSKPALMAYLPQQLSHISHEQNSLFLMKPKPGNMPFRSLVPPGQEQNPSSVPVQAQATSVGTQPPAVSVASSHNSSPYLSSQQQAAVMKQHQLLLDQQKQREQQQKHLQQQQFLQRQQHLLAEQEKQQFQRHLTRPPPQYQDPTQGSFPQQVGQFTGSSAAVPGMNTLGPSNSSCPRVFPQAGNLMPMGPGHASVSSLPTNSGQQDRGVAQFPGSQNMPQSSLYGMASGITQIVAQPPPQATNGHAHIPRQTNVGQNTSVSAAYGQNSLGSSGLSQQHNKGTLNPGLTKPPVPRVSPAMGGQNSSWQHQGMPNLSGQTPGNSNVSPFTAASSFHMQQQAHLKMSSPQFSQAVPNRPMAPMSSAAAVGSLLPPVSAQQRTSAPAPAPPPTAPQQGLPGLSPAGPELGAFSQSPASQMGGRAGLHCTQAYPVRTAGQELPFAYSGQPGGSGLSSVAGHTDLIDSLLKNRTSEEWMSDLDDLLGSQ
UniProt Q01968: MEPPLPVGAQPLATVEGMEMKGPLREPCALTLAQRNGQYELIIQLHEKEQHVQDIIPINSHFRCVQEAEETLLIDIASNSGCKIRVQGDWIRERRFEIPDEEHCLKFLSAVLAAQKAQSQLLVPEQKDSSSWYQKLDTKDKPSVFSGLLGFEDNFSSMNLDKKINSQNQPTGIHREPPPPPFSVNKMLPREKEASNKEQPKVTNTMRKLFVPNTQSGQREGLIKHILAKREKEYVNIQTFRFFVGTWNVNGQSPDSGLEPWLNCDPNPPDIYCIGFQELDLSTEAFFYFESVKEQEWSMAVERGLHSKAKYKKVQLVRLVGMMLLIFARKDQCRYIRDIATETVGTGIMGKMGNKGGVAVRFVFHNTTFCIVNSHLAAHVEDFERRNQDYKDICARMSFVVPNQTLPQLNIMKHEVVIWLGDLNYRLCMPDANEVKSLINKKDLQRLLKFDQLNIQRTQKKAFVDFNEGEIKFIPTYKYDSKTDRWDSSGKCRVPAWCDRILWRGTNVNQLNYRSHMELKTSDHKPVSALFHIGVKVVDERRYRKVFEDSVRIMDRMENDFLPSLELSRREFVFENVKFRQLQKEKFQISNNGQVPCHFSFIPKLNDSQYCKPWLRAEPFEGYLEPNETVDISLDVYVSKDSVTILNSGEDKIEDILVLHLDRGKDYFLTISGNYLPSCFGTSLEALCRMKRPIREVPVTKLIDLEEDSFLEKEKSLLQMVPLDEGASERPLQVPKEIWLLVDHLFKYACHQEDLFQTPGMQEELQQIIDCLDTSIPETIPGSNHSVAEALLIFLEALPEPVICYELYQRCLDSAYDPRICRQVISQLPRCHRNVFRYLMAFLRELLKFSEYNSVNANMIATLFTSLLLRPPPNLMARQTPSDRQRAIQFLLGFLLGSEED

The test has as its target Flag-tagged HPV8-E6wt (human papillomavirus type 8) (UniProt P06428). The test can be described thus: co-IP; extracts of transiently transfected C33a cells incubated with M2-FLAG-agarose for 2 h at 4 °C, three washes with LSDB containing different KCl concentrations; co-precipitated endogenous protein detected by Western blot. In general terms: A western blot detects proteins with antibodies after separation by electrophoresis.

No constants are given. Whether binding was seen depends on the method and setting. In cells and extracts the contact can be indirect. Some entries that bind do so weakly or less than the wild type.

On to “Mastermind-like protein 1 (MAML1) (from UniProt Q92585 1-1016)”, for which the binding result is recorded as “binds”. Consider “inositol-polyphosphate-5-phosphatase (OCRL1) (from UniProt Q01968 1-901) (enzyme)”, for which the binding entry is listed as “binds”.
